Measured data: PubChem BioAssay AID652243 (Drosophila RNAi Screening Center, 2013)

- Screen: 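Knock-downs that decrease or increase androgen receptor reporter signal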 (primary screen)
- System: Drosophila S2R+ cells
- Reagent: long dsRNA against Drosophila genes
- Timing: 72 h (48 h, then 24 h hormone)
- Challenge: synthetic androgen R1881 at 10 nM for 24 h
- Measured: 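Firefly light from an androgen-responsive reporter and Renilla control light per well, raw and unnormalised, for each of two replicates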
- Reading the numbers: firefly reporter light: higher = more light from androgen-responsive reporter; Renilla control light: higher = more constitutive control signal (cell number, transfection)
- Rule for the call: 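Across duplicate plates, a knock-down whose log firefly/Renilla ratio shifted a set fold down or up from the GFP/LacZ control mean was a hit; the downward cut appears as both 1.5 and 3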
- Calls: active = hit: reporter lowered or raised; inactive = no hit
In all, the deposit lists about 24,000 reagents; shown is a random part of those with a known target gene and a result. In the full data, 246 (1%) got an active call. 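Plates not normalised; calls are printed but the firefly/Renilla ratio behind them is not deposited; fold cut for lowering reported inconsistently.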 Raw values are not corrected between plates. Reagent sequences are not shown. The record does not give: the amount of reagent.

Against CG17490 [DRSC03797] the deposit lists firefly reporter light, replicate 1 = 1.71e5; firefly reporter light, replicate 2 = 1.39e5; Renilla control light, replicate 1 = 1.41e6; Renilla control light, replicate 2 = 9.48e5; inactive. Against CG17490 [DRSC26780], the entry reads firefly reporter light, replicate 1 = 4.33e5; firefly reporter light, replicate 2 = 3.91e5; Renilla control light, replicate 1 = 6.50e5; Renilla control light, replicate 2 = 5.96e5; inactive. Against CG8379 [DRSC16414], the entry reads firefly reporter light, replicate 1 = 1.22e5; firefly reporter light, replicate 2 = 1.31e5; Renilla control light, replicate 1 = 2.50e6; Renilla control light, replicate 2 = 1.99e6; inactive. For CycB [DRSC04605], the values are firefly reporter light, replicate 1 = 3.03e5; firefly reporter light, replicate 2 = 1.57e5; Renilla control light, replicate 1 = 8.87e5; Renilla control light, replicate 2 = 6.68e5; active. CycB [DRSC36993] gave inactive. Depletion of CG9281 [DRSC20179] came out at: firefly reporter light, replicate 1 = 1.26e5; firefly reporter light, replicate 2 = 99212; Renilla control light, replicate 1 = 8.72e5; Renilla control light, replicate 2 = 7.34e5; inactive.

CG9281 [DRSC24522] showed firefly reporter light, replicate 1 = 9.64e5; firefly reporter light, replicate 2 = 9.40e5; Renilla control light, replicate 1 = 9.85e5; Renilla control light, replicate 2 = 9.84e5; inactive. CG13949 [DRSC00367] gave firefly reporter light, replicate 1 = 5.00e5; firefly reporter light, replicate 2 = 5.77e5; Renilla control light, replicate 1 = 1.48e6; Renilla control light, replicate 2 = 1.85e6; inactive. Depletion of CG13949 [DRSC25702] gave: firefly reporter light, replicate 1 = 8.20e5; firefly reporter light, replicate 2 = 8.73e5; Renilla control light, replicate 1 = 1.05e6; Renilla control light, replicate 2 = 9.37e5; inactive. Knock-down of Art6 [DRSC16583] resulted in: firefly reporter light, replicate 1 = 1.20e5; firefly reporter light, replicate 2 = 1.04e5; Renilla control light, replicate 1 = 1.52e6; Renilla control light, replicate 2 = 2.03e6; inactive. After knock-down of Dbp45A [DRSC07395], the record shows firefly reporter light, replicate 1 = 8.50e5; firefly reporter light, replicate 2 = 1.06e6; Renilla control light, replicate 1 = 1.27e6; Renilla control light, replicate 2 = 1.70e6; inactive. With knock-down of BomS2 [DRSC21488], the record shows firefly reporter light, replicate 1 = 7.81e5; firefly reporter light, replicate 2 = 7.69e5; Renilla control light, replicate 1 = 1.29e6; Renilla control light, replicate 2 = 1.79e6; inactive.

CG15771 [DRSC18077] scored firefly reporter light, replicate 1 = 1.63e5; firefly reporter light, replicate 2 = 2.39e5; Renilla control light, replicate 1 = 1.39e6; Renilla control light, replicate 2 = 2.09e6; inactive. After knock-down of CG5863 [DRSC15898], the screen gave firefly reporter light, replicate 1 = 1.65e5; firefly reporter light, replicate 2 = 84722; Renilla control light, replicate 1 = 1.96e6; Renilla control light, replicate 2 = 1.57e6; inactive. After knock-down of Lis-1 [DRSC07459] the results were firefly reporter light, replicate 1 = 81677; firefly reporter light, replicate 2 = 1.26e5; Renilla control light, replicate 1 = 2.45e6; Renilla control light, replicate 2 = 2.45e6; inactive. Knock-down of dmrt11E [DRSC19715] gave: firefly reporter light, replicate 1 = 9.39e5; firefly reporter light, replicate 2 = 1.08e6; Renilla control light, replicate 1 = 1.32e6; Renilla control light, replicate 2 = 1.27e6; inactive. Knock-down of dmrt11E [DRSC23784] came out at: firefly reporter light, replicate 1 = 5.50e5; firefly reporter light, replicate 2 = 4.39e5; Renilla control light, replicate 1 = 5.05e5; Renilla control light, replicate 2 = 5.03e5; inactive. For RpS4 [DRSC11272], the entry reads firefly reporter light, replicate 1 = 2.03e5; firefly reporter light, replicate 2 = 2.08e5; Renilla control light, replicate 1 = 1.97e6; Renilla control light, replicate 2 = 1.80e6; inactive.

Reprinted from above, 4 entries:
Art6 [DRSC16583] → firefly reporter light, replicate 1 = 1.20e5; firefly reporter light, replicate 2 = 1.04e5; Renilla control light, replicate 1 = 1.52e6; Renilla control light, replicate 2 = 2.03e6; outcome = inactive
Dbp45A [DRSC07395] → firefly reporter light, replicate 1 = 8.50e5; firefly reporter light, replicate 2 = 1.06e6; Renilla control light, replicate 1 = 1.27e6; Renilla control light, replicate 2 = 1.70e6; outcome = inactive
BomS2 [DRSC21488] → firefly reporter light, replicate 1 = 7.81e5; firefly reporter light, replicate 2 = 7.69e5; Renilla control light, replicate 1 = 1.29e6; Renilla control light, replicate 2 = 1.79e6; outcome = inactive
CG15771 [DRSC18077] → firefly reporter light, replicate 1 = 1.63e5; firefly reporter light, replicate 2 = 2.39e5; Renilla control light, replicate 1 = 1.39e6; Renilla control light, replicate 2 = 2.09e6; outcome = inactive

The results go on.
Depletion of Lmpt [DRSC09450] resulted in: firefly reporter light, replicate 1 = 50999; firefly reporter light, replicate 2 = 35518; Renilla control light, replicate 1 = 6.65e5; Renilla control light, replicate 2 = 5.43e5; active. For Lmpt [DRSC09864], the values are firefly reporter light, replicate 1 = 2.80e5; firefly reporter light, replicate 2 = 2.25e5; Renilla control light, replicate 1 = 2.47e6; Renilla control light, replicate 2 = 2.41e6; inactive. Silencing of Lmpt [DRSC09865] gave: firefly reporter light, replicate 1 = 39807; firefly reporter light, replicate 2 = 34345; Renilla control light, replicate 1 = 4.96e5; Renilla control light, replicate 2 = 3.83e5; inactive. Depletion of Lmpt [DRSC09866] resulted in: firefly reporter light, replicate 1 = 3.16e5; firefly reporter light, replicate 2 = 2.55e5; Renilla control light, replicate 1 = 2.15e6; Renilla control light, replicate 2 = 2.43e6; inactive. Depletion of Lmpt [DRSC11107] gave: firefly reporter light, replicate 1 = 3.15e5; firefly reporter light, replicate 2 = 2.95e5; Renilla control light, replicate 1 = 3.44e6; Renilla control light, replicate 2 = 3.53e6; inactive. Against Lmpt [DRSC21738] the deposit lists firefly reporter light, replicate 1 = 4.40e5; firefly reporter light, replicate 2 = 5.93e5; Renilla control light, replicate 1 = 2.12e6; Renilla control light, replicate 2 = 2.81e6; inactive.

For Lmpt [DRSC22921], the values are firefly reporter light, replicate 1 = 4.44e5; firefly reporter light, replicate 2 = 8.61e5; Renilla control light, replicate 1 = 8.57e5; Renilla control light, replicate 2 = 1.88e6; inactive. For Lmpt [DRSC25095], the values are firefly reporter light, replicate 1 = 4.08e5; firefly reporter light, replicate 2 = 5.55e5; Renilla control light, replicate 1 = 4.86e5; Renilla control light, replicate 2 = 5.88e5; inactive. For Lmpt [DRSC25282], the values are firefly reporter light, replicate 1 = 8.94e5; firefly reporter light, replicate 2 = 1.11e6; Renilla control light, replicate 1 = 1.05e6; Renilla control light, replicate 2 = 1.31e6; inactive. Lmpt [DRSC29293] showed firefly reporter light, replicate 1 = 5.45e5; firefly reporter light, replicate 2 = 6.34e5; Renilla control light, replicate 1 = 1.25e6; Renilla control light, replicate 2 = 1.16e6; inactive.
